Test results reported in PMC4868323, “Interaction of Toll-Like Receptors with the Molecular Chaperone Gp96 Is Essential for Its Activation of Cytotoxic T Lymphocyte Response” (PLoS ONE, 2016).
Results are given in words; binding and its absence hold for the method and conditions named. For some of these results: Binding seen in cells or lysates may run through a third protein. Some results given as binding are weak or reduced against the parent protein; the word gives no strength.

Amino acid sequences for entries named in this document (tags omitted). A change or cut given only in a name is not applied to a line headed by its entry. Residues count along the entry.
UniProt P14625, residues 22-803: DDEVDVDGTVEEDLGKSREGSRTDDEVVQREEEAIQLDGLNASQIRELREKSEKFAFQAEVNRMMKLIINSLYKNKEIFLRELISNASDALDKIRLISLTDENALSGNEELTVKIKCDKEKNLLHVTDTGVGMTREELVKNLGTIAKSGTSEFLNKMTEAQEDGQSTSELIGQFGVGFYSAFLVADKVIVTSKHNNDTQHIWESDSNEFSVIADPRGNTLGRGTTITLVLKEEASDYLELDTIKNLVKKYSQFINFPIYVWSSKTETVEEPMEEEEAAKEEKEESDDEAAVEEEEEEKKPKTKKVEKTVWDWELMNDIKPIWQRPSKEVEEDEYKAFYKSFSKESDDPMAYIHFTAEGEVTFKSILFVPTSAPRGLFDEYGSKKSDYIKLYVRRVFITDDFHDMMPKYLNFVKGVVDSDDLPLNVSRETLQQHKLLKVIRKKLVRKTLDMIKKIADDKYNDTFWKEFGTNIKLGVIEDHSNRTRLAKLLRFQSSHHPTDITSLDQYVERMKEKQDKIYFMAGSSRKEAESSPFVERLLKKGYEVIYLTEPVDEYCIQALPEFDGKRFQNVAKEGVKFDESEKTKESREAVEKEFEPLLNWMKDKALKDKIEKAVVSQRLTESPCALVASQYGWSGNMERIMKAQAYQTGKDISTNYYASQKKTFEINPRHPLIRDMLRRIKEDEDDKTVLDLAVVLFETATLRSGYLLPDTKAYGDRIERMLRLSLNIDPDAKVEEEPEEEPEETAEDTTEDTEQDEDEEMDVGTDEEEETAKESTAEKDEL
UniProt Q9QUN7, residues 25-784: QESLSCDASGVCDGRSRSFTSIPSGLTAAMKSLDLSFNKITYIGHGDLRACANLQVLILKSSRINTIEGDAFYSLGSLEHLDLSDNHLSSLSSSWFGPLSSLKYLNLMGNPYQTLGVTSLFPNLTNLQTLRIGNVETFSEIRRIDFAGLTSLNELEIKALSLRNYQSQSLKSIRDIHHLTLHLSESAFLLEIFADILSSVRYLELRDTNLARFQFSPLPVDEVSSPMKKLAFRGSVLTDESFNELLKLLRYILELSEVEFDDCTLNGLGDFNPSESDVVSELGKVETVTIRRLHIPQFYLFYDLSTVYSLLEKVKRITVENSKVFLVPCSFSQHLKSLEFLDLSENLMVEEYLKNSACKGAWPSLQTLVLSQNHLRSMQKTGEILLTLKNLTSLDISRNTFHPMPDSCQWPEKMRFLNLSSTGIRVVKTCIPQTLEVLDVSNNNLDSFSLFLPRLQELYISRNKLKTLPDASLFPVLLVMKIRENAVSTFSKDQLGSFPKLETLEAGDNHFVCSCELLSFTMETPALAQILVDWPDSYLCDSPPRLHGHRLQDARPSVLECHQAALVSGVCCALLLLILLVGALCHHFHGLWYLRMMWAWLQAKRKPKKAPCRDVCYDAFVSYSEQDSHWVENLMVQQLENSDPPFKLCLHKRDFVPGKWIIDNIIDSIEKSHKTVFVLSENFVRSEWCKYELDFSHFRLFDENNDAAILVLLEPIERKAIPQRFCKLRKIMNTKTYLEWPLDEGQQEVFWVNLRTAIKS
UniProt O60603: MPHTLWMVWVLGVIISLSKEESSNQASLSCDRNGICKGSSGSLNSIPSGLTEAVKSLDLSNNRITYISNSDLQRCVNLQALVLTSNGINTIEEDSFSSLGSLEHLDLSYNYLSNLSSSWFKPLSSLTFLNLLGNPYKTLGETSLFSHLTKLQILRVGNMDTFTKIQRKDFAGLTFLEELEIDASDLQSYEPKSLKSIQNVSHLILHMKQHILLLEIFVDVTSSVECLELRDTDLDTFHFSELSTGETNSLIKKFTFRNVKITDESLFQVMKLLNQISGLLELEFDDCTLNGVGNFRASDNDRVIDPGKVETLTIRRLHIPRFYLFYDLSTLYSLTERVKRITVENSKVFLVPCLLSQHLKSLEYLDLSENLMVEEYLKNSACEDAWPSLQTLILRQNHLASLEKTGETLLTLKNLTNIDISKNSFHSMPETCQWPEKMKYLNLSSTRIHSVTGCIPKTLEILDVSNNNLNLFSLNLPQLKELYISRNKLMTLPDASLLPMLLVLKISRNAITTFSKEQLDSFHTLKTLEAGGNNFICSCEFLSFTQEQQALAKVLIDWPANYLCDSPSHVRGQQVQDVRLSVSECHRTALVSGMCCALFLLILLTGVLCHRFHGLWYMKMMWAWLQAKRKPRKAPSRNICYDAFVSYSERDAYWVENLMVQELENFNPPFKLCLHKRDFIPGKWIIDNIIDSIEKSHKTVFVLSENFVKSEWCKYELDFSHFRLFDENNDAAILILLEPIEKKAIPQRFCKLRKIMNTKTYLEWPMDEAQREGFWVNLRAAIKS
UniProt Q9QUK6, residues 26-835: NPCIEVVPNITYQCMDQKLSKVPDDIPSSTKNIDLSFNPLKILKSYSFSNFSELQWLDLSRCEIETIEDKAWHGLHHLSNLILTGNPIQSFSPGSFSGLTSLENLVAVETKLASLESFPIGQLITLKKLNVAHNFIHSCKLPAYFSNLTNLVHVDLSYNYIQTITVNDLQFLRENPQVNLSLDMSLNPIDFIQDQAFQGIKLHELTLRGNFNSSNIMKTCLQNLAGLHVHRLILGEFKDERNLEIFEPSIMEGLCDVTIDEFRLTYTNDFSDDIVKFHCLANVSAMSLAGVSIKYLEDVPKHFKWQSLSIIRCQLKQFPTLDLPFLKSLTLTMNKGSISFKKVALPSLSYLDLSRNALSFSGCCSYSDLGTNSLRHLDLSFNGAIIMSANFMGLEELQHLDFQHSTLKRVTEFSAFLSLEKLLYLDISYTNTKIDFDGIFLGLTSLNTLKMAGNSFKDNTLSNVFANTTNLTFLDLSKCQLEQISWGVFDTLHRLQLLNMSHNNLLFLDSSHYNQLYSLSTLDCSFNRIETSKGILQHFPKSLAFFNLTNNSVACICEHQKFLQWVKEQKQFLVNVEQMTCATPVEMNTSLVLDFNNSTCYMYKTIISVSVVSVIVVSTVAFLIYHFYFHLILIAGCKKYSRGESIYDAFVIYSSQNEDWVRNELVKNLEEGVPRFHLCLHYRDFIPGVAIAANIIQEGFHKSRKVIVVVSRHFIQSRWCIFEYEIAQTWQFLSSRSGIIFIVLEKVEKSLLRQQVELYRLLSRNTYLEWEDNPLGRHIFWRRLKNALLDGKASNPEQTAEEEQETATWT
UniProt O00206, residues 24-839: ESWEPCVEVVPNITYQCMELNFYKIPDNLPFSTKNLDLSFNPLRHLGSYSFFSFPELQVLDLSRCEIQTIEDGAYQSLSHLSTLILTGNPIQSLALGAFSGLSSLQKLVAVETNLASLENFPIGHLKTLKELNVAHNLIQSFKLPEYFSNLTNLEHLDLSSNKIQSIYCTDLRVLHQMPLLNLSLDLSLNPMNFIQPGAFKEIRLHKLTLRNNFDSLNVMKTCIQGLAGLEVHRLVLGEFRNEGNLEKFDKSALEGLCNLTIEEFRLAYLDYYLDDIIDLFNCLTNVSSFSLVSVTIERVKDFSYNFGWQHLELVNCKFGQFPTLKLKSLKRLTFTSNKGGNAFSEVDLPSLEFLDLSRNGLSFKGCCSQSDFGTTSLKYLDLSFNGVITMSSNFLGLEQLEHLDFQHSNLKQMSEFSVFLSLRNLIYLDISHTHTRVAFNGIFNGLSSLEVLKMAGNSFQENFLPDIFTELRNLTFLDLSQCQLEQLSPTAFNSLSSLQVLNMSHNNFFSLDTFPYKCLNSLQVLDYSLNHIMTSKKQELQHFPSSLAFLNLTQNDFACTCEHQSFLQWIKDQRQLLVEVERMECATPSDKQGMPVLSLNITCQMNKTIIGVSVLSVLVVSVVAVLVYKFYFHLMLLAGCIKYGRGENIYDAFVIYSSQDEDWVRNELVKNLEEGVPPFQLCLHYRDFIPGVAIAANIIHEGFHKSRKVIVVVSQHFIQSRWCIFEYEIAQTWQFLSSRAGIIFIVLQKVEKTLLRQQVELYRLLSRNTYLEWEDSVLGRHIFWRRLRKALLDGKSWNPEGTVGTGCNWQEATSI

Columns and labels:
[1] = target: recombinant wild-type gp96 (gp96-wt), His-tagged (human) (UniProt P14625); assay: co-IP; Raw264.7 cells or human macrophage cells incubated with 100 μg/ml purified His-tagged gp96 at 4°C for 4 h; cell lysates precipitated with anti-His Abs or control Ab and protein G beads; TLR2 or TLR4 detected by Western blotting; only the target purified
[2] = target: TLR2, endogenous in RAW 264.7 macrophage cells (mouse (endogenous in RAW 264.7)) (UniProt Q9QUN7); assay: flow cytometry on cells; FITC-labelled gp96 (100 μg/ml, 4°C, 4 h) on RAW 264.7 cells, HEK293 cells or human macrophage cells; excessive anti-TLR2 or TLR4 Abs added for blocking; only the binder purified
[3] = target: TLR2, endogenous in primary human macrophage cells (human (endogenous in primary macrophage cells)) (UniProt O60603); assay: as above
[4] = target: TLR4, endogenous in RAW 264.7 macrophage cells (mouse (endogenous in RAW 264.7)) (UniProt Q9QUK6); assay: as above
[5] = target: TLR4, endogenous in primary human macrophage cells (human (endogenous in primary macrophage cells)) (UniProt O00206); assay: as above

## TLR2, endogenous in primary human macrophage cells (from UniProt O60603 21-784) (receptor)
[1]
  binding: binds

## TLR4, endogenous in RAW 264.7 macrophage cells (from UniProt Q9QUK6 26-835) (receptor)
[1]
  binding: binds

## TLR4, endogenous in primary human macrophage cells (from UniProt O00206 24-839) (receptor)
[1]
  binding: binds

## recombinant wild-type gp96 (gp96-wt), His-tagged (from UniProt P14625 22-803)
[2]
  binding: binds
[3]
  binding: binds
[4]
  binding: binds
[5]
  binding: binds
